# In PubChem BioAssay AID2417 (National Center for Advancing Translational Sciences (NCATS), 2010):
# Among all 140,000 compounds or so, about 4,300 (3.1%) were called active. The inconclusive results got no clear call from the source; some entries with a clear call stand among them for comparison.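 Rule for the calls: active = readout at or below -70, meaning at least 70% loss of cells showing the perinucleolar compartment, a nuclear body marking cancer cells; inconclusive = readout between -30 and a set limit; inactive = the rest.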
# Test: High Content Assay for Compounds that inhibit the Assembly of the Perinucleolar Compartment;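 note: plate controls were DMSO wells for no effect and camptothecin positive control wells for full effect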
# Conditions: PC3M PTB-GFP, PNC prevalence imaging, 16 h; at 10 µM; active compounds read low
# Source text: High Content Assay for Compounds that inhibit the Assembly of the Perinucleolar Compartment NIH Chemical Genomics Center [NCGC] NIH Molecular Libraries Probe Centers Network [MLPCN] MLPCN Grant: MH082371-01A2 Assay Submitter (PI): Sui Huang, Northwestern University, Feinberg School of Medicine, Cell and Molecular Biology, Chicago, Illinois. The perinucleolar compartment (PNC) is a non-membrane-bound nuclear subdomain that is associated with but structurally distinct from the nucleolus. The PNC is a heritable trait, in which the number of PNCs per cell in daughter cells often mimics that of their mother cells. The PNC is heterogeneous in shape, is stable through interphase, disassembles during mitosis, and reassembles in early G1. The PNC is concentrated with newly synthesized RNA polymerase III (pol III) RNAs (MRP RNA, RNAse P H1 RNA, hY RNAs[hY1, 2, 5], Alu RNA, and SRP [7SL] RNA) and RNA binding proteins (nucleolin, PTB, CUG-BP, KSRP, Raver1, Raver2, and Rod). […] Extensive in vitro studies have shown that the PNC is unique to tumor cells and preferentially forms in tumor cells derived from solid tissues. Examination of cancer cell lines from various origins and malignant capacities has shown that PNC prevalence correlates with the malignancy of tumors and has the potential to be developed as a pan-cancer prognostic marker. […] Although the PNC is associated with a DNA locus and a handful of components have been identified, much remains to be investigated regarding the structure and function of the PNC and its mechanistic link to cancer. We have previously shown that PNC prevalence reduction is a valid strategy to identify compounds that can be used to study the structure and function of the PNC. It is necessary, however, to create a screening platform that is able to test a large number of compounds in an automated fashion. Here we report the development and robustness of an automated whole-cell phenotypic image-based screening assay that is capable of identifying such compounds.
# PNC High Content Imaging Assay Procedure: 1. Cells at a density of 75-90% confluency in T175 flasks were harvested using 7 ml TrypLE Express cell dissociation reagent. After dissociation (5 minutes room temperature incubation) 10 ml of complete media was added to the TrypLE/cell suspension. The liquid was transferred to a 50 ml Conical tube and cells were pelleted at 1000 RPM for 5 min. Supernatant was removed and cells were resuspended to a final density of 150-200 cells/ul in complete media. 2. Cells were plated in 5 ul volume (750-1000 cells/well) into 1536 well Black uclear Aurora Low Base plates and allowed to recover and adhere at 37 C in a humidified 5% CO2 incubator for 4 hours. 3. After 4 hour incubation, compound libraries (23 nl of […] in columns 5-48) were transferred to the plates in duplicate using a 1536 well pintool. Camptothecin positive control (59 uM final) was added to column 2 and 1:3 dilutions of camptothecin was added to column 3. DMSO negative controls were present in columns 1 and 4. 4. After a 16 hour incubation in the 37 C incubator, cells were fixed by the addition of 4 ul of 6% EM grade paraformaldehyde (containing 0.1% triton X 100) directly to the cells. The plates were incubated at room temperature for 20 minutes. The liquid was removed using a 32 channel Kalypsys aspirator and the fixed cells were washed twice with 5 ul PBS followed by a final addition of 5 ul PBS containing 1 ug/ml Hoechst 33342. 5. Fixed plates were sealed and sotred at 4C until imaged. 6. Plates were imaged on an InCell 1000 automated microscope using a 20 x objective, a standard FITC filter set, no camera binning, and an exposure time of ~100-150 msec/well. 7. Data analysis. PNC prevalence was determined using the Multitarget analysis module from InCell Workstation software (V3.5 ) and analysis was run on a quad core workstation using the Incell Developer Toolbox (V1.7). […]
row,Compound,"activity change (PNC), negative = inhibition"
1,Cc1ccc(S(=O)(=O)N(C)CCCC(=O)NCc2ccc3c(c2)OCO3)cc1,inconclusive: -73.6%
2,O=S(=O)(CCc1ccccc1)N1CCOCC1,inconclusive: -31.8%
3,CCSc1nnc(NC(=O)C(C(F)(F)F)C(F)(F)F)s1,inactive: 5.87%
4,CCCc1cc(=O)[nH]c(SCC)n1,inactive: 45.7%
5,O=C(CSc1nc2ccccc2s1)Nc1cc(S(=O)(=O)N2CCOCC2)ccc1Cl,inactive: -1.49%
6,CC(C)CCNC(=O)NC(=O)COc1ccccc1C#N,inconclusive: -36.7%
7,S=C(NCCc1ccccc1)NCc1cccs1,inactive: 25%
8,Cc1ccccc1OCC(=O)Nc1ccc2c(c1)OCO2,inconclusive: -69.3%
9,CCCCCn1cnc2c(sc3nc4c(cc32)CSC(C)(C)C4)c1=O,inconclusive: -61.7%
10,CCOC(=O)N1CCN(c2cc(=O)n(C3CCCCC3)c(=O)[nH]2)CC1,inconclusive: -49.4%
11,O=C(CNC(=O)c1ccco1)N/N=C/c1ccc(O)c([N+](=O)[O-])c1,inactive: 1.8%
12,CCOc1cc(-c2cc(N)n[nH]2)cc(OCC)c1OCC,inconclusive: -55.7%
13,O=C(CSc1nc2cc(Cl)ccc2o1)NCCc1ccccc1,inactive: -25%
14,CCc1ccccc1N1CCN(S(=O)(=O)c2cc(OC)ccc2OC)CC1,inactive: 31.8%
15,CCOC(=O)CSc1nc2sc(C)c(C)c2c(=O)[nH]1,inactive: 40.4%
16,Cc1ccc2onc(CC(=O)O)c2c1,inconclusive: -66.9%
17,CCC(C)(C)n1nnnc1CN1CCC(NC(=O)c2ccc(Br)cc2)CC1,inconclusive: -32.4%
18,COc1ccccc1Cn1c(=O)[nH]c2cccnc21,inconclusive: -48%
19,CCOc1ccc2[nH]c(=O)c(CN(CCO)C(=O)CC)cc2c1,inconclusive: -36.2%
20,CCCN(CCC)C(=O)COc1cc(=O)n(CC)c2ccccc12,inactive: -18.5%
21,Cc1csc(NC(=O)CSc2nc(C)nc3c2c(=O)n(C)c(=O)n3C)n1,inconclusive: -39.3%

# Compounds above containing a thiophene ring, fused or not, in the order listed:
row,Compound,"activity change (PNC), negative = inhibition"
7,S=C(NCCc1ccccc1)NCc1cccs1,inactive: 25%
9,CCCCCn1cnc2c(sc3nc4c(cc32)CSC(C)(C)C4)c1=O,inconclusive: -61.7%
15,CCOC(=O)CSc1nc2sc(C)c(C)c2c(=O)[nH]1,inactive: 40.4%

# Additional entries.

row,Compound,"activity change (PNC), negative = inhibition"
1,O=C(NCC(c1ccco1)N1CCCC1)c1ccccc1F (stereo unspecified),inconclusive: -61.7%
2,CC1CCc2nc(NC(=O)Cc3cccs3)sc2C1 (stereo unspecified),inconclusive: -33.5%
3,Cc1c(C(=O)N2CCOCC2)[nH]c2c1C(=O)CC(c1ccccc1Cl)C2 (stereo unspecified),active: -84.4%
4,O=C(O)c1ccc(-n2cccc2)cc1O,inconclusive: -79.4%
5,C=C(C)COc1ccc(-c2[nH]ncc2Oc2ccccc2OCC)c(O)c1,active: -117%
6,CC(C)Nc1nc(Cl)nc(NN(C)c2nc(N(C)C)nc(N(C)C)n2)n1,inconclusive: -41.8%
7,O=C(NCc1ccccc1)N[C@@H](Cc1ccccc1)C(=O)O,inconclusive: -45%
8,COC(=O)C(Cc1ccc(O)cc1)NC(=O)c1ccccc1 (stereo unspecified),inconclusive: -50.9%
9,Cc1cc(C)cc(NC(=O)c2ccc3nc[nH]c3c2)c1,inconclusive: -31.8%
10,CC(NC(=O)CSC1=NCCS1)c1ccccc1 (stereo unspecified),inactive: 59.6%
11,COc1ccc(-n2c(C)c3c(OC)cccc(=O)c3c2C)cc1,inactive: 4.29%
12,O=C(Nc1ccc(S(=O)(=O)N2CCCCCC2)cc1)c1ccc(Br)o1,inactive: -1.85%
13,COc1ccc2nc(NC(=O)C3CCCN(S(=O)(=O)c4cccc5nonc45)C3)sc2c1 (stereo unspecified),active: -100%
14,CC(=O)Nc1ccc(OC(=O)c2ccc(Cl)cc2)cc1,active: -80.5%
15,CSC1=NCCN1C(=O)c1cccc(C(F)(F)F)c1,inconclusive: -61.1%
16,Cn1c(C(=O)NCC2CCCO2)cc2c(=O)[nH]c3ccccc3c21 (stereo unspecified),inactive: 54%
17,Cc1ccc(-c2nc3cnccn3c2Nc2ccc3c(c2)OCCO3)o1,inconclusive: -62.3%
18,O=C(CSc1nnc2c(n1)[nH]c1ccccc12)OCc1ccccc1,inconclusive: -33.1%
19,CSC1=NCCN1C(=O)c1ccc(S(=O)(=O)N2CCCC2)cc1,inconclusive: -46%
20,COc1ccc(CC(=O)O/N=C(\N)Cc2ccc(OC)c(OC)c2)cc1,inconclusive: -53%
21,COCCn1c(=NC(=O)c2ccc(S(=O)(=O)N3CCc4ccccc4C3)cc2)sc2cc(OC)ccc21,inconclusive: -55.1%

row,Compound,"activity change (PNC), negative = inhibition"
1,OCCNCc1cc(Br)ccc1OCc1ccccc1,inconclusive: -52.6%
2,CCOC(=O)CN(C(=O)CSc1nnc2c(n1)[nH]c1ccc(F)cc12)c1ccccc1,inactive: -22%
3,CCOC(=O)CSc1nnc(-c2ccc(Cl)cc2Cl)o1,inconclusive: -50.4%
4,Cc1ccc(OCC(O)CN2C(=O)NC(C)(C)C2=O)cc1C (stereo unspecified),inconclusive: -30.1%
5,COC(=O)C1=C(C)N(C)C(C)=C(C(=O)OC)C1c1ccncc1,inconclusive: -63.1%
6,COC(=O)c1cccc(NC(=S)NCCC2=CCCCC2)c1,inactive: 40%
7,Cc1ccc(Cl)cc1N(CC(=O)N1CCCCCC1)S(C)(=O)=O,inconclusive: -32%
8,S=C1CCSc2ccc(Cl)cc2N1,inconclusive: -58.5%
9,CCOC(=O)/C(C#N)=C1/C=Cc2ccccc2N1CC,active: -99.5%
10,CCc1nnc(NC(=O)C(CC)c2ccccc2)s1 (stereo unspecified),inconclusive: -41.7%
11,CCOC(=O)Cc1csc(NC(=O)c2sc3nc4ccc(CC)cc4cc3c2N)n1,inconclusive: -30.8%
12,O=[N+]([O-])c1ccc(Cl)c(-c2ccc(/C=N/c3c(-c4ccco4)nc4ccccn34)o2)c1,inactive: -25%
13,O=C(NCc1ccccc1F)C1CCCN(C(=O)NC2CCCCC2)C1 (stereo unspecified),active: -124%
14,O=NC1=C(c2c(O)[nH]c3ccccc23)CCCC1,inactive: 2.09%
15,COCc1cc(=O)[nH]c2cc(NC(=O)C(C)(C)CCl)c(C)cc12,inconclusive: -55.8%
16,O=C(CSCc1ccc(Cl)cc1)Nc1ccc(S(=O)(=O)N2CCCCCC2)cc1,inconclusive: -46.2%
17,CCOC(=O)CSC1=C(C#N)C(c2ccc(C)s2)CC(=O)N1 (stereo unspecified),active: -87.8%
18,CC(=O)c1cc(C#N)c(Oc2cc(C)cc(C)c2)nc1C,active: -114%
19,CC(NC(=O)COc1ccc(-c2nnco2)cc1)c1ccc(Cl)cc1Cl (stereo unspecified),inconclusive: -51.7%
